Measured values: patent US5962408A, “Disulphide-cyclo-[H-Cys-Glu-Gln-Tyr-Cys-OH], and its use in blood-clotting disorders” (Nycomed Imaging AS, priority 1994, dated 1999)
At least one peptide structure holds a part that was inferred or is arguable (an end, a ring closure or a residue). Positions of bridges follow the written chain, without caps; N, C: chain ends. Residues, ends and D or L forms follow the SMILES beside them. No end group written: not given here.

Amino acid sequences for entries named in this document (tags omitted). Residues count along the entry.
UniProt P13726, 33-295: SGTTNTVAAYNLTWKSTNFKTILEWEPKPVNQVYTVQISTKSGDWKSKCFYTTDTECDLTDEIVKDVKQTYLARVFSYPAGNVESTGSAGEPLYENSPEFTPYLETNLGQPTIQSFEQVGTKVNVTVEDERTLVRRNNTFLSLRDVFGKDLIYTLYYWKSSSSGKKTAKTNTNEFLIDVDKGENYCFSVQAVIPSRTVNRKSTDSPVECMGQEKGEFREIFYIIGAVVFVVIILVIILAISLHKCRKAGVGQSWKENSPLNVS

Tests used:
[1] = molecular target: binding of Factor VII to tissue factor (Homo sapiens, UniProt P13726); experiment: inhibition of binding of Factor VII to tissue factor
[2] = system: tissue factor-dependent plasma coagulation; experiment: one-stage in vitro tissue factor-dependent plasma coagulation assay; assay type: biochemical, human
Description: A one-stage in vitro coagulation assay was used as follows: peptides dissolved in 3-[N-morpholino]propane-sulphonic acid buffer (100 mM, pH 7.4) and NaCl (100 mM) were premixed with diluted (1:50 in saline) lipidated TF (Thromborel S®, Behringwerke AG, Marburg, Germany) and CaCl2 (5 mM final concentration) and the solutions were kept at 37° C. for 2 minutes. The coagulation reaction was initiated by addition of a thawed aliquot of frozen platelet-free human plasma pool (37° C.). The clotting-time for four replicate incubations were simultaneously determined automatically in an electromagnetic coagulometer (Thrombotrack 4, Nycomed Pharma AS, Oslo, Norway). The mean value for the clotting times determined from the replicate samples were converted to arbitrary TF units by a log-log calibration curve generated with Thromborel.

[3] = system: TF-dependent arterial thrombogenesis; experiment: human ex vivo model of TF-dependent arterial thrombogenesis
Description: Apart from the ability of the peptide disulphide-cyclo-[H-Cys-Glu-Gln-Tyr-Cys-OH] to inhibit the complex formation between FVIIa and TF in various biochemical assays, we have also found this peptide to be efficacious in a clinically relevant ex vivo model of TF/FVII-dependent arterial human thrombogenesis.
The efficacy of peptides was tested in a human ex vivo model of TF-dependent arterial thrombogenesis, essentially as described (K. S. Sakariassen et al., 1990, Arteriosclerosis, 10, 276; U. .O slashed.rvim et al., 1995, Arterioscl. Thromb. Vasc. Biol., in press). Human non-anticoagulated blood was drawn directly from an antecubital vein and mixed with peptide solution in a heparin-coated mixing device situated proximally to a perfusion chamber which contained a TF-coated coverslip (Thromborel S®). Blood flow was kept at 10 mL/min for 4 minutes, producing a shear rate of 650 s^-1, typical for small arteries.

Molecule | inhibition of the binding of Factor VII to tissue factor [1] | effect on clotting time ([2]; end-capped peptide tested up to 1.5 mM) | IC50 ([2]; four separate experiments, mean±standard deviation, human plasma pool, read-out: IC50 (half-maximal inhibition, clotting time converted to TF units)) [µM] | effect on thrombus formation ([3]; around 1 mM final peptide/plasma concentration) | IC50 ([3]; four parameters, six experiments, five final plasma concentrations, shear rate 650 s^-1, read-out: overall half-maximal inhibition value of thrombus formation) [µM]
SDHTGTKRSC [SDHTGTKRSC] | rather poor inhibitor |  |  |  | 
NC(=O)CC[C@@H]1NC(=O)[C@H](CCC(=O)O)NC(=O)[C@@H](N)CSSC[C@@H](C(=O)O)NC(=O)[C@H](Cc2ccc(O)cc2)NC1=O [disulphide-cyclo-[H-Cys-Glu-Gln-Tyr-Cys-OH]] (H-CEQYC-OH; disulfide 1-5) |  | dose-dependent prolongation of the clotting time | 1300 ± 500 | essentially complete inhibition | 500
